Each number is a percent effect as filed. How 0% and 100% were set is not recorded. Most values in the screen are low, and negative values occur. This is an unselected part of the compounds tested.

Sequences of proteins named here, by UniProt entry; tags and fusion partners are left off. Residues count along the entry.
UniProt Q4DA54, 1-478: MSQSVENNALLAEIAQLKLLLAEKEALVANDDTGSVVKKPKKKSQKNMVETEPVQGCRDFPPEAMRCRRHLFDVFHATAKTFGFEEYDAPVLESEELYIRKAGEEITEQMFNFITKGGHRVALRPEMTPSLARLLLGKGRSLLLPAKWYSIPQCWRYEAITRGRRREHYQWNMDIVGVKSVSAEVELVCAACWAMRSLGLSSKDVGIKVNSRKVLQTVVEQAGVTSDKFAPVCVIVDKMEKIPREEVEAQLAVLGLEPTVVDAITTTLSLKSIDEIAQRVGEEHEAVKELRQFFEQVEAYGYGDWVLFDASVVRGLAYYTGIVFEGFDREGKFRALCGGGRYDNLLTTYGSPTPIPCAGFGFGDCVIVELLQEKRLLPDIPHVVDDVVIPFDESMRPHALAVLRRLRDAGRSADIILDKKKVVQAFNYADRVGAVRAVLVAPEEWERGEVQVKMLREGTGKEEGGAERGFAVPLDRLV
UniProt P9WFT3, whole entry: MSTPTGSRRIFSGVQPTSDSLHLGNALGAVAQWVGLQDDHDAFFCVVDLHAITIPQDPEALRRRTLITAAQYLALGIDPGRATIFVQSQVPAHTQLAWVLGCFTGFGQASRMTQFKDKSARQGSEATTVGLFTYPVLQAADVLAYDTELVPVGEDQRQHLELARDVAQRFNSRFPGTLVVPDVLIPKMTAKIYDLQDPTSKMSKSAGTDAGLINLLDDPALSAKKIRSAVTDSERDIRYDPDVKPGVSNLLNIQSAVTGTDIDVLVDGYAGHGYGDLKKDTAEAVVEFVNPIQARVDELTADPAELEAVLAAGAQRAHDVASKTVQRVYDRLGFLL
UniProt I6X8D2, whole entry: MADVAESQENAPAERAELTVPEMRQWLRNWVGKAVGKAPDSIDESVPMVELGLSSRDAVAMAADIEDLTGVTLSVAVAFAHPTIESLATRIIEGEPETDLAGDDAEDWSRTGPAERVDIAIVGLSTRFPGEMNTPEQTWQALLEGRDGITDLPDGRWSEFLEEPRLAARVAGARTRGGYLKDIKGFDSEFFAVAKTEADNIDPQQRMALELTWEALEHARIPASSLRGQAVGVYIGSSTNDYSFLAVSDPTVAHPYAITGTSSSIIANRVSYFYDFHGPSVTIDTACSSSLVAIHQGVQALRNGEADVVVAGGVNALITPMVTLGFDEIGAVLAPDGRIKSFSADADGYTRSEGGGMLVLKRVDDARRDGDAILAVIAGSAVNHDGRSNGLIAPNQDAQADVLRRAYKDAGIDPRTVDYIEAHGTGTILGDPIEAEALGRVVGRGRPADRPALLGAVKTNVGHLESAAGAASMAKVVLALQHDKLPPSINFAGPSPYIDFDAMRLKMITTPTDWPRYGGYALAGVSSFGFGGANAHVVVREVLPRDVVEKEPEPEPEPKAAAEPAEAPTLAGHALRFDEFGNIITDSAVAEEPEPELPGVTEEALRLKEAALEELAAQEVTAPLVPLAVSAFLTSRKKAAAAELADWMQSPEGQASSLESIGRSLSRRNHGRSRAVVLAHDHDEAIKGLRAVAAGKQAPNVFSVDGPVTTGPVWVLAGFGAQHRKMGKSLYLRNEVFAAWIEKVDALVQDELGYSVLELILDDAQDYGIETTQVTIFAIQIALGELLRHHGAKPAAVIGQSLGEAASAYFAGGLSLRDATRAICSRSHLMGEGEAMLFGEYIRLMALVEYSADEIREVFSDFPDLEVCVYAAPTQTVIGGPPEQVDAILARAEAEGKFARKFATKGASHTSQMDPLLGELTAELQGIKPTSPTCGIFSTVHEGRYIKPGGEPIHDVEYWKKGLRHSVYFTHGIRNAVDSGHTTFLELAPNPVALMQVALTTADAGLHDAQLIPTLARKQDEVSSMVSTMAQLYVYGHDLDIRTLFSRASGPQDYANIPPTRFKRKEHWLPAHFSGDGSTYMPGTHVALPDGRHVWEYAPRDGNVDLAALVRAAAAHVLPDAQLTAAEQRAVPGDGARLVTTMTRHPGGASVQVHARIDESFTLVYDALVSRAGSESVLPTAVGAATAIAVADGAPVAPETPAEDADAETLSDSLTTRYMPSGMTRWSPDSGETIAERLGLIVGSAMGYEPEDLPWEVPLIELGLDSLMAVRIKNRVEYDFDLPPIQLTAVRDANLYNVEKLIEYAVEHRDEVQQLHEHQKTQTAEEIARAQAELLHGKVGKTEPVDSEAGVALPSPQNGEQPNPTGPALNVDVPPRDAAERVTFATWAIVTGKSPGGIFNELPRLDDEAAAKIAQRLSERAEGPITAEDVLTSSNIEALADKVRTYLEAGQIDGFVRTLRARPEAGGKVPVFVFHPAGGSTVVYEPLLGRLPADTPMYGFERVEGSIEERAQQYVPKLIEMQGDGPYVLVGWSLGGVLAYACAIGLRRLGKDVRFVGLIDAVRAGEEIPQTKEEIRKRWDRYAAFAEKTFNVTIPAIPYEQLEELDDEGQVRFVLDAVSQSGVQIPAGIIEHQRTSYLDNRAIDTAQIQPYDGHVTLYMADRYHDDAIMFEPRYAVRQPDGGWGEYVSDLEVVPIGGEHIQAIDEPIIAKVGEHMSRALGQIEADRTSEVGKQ
UniProt Q8IDJ8, 1-583: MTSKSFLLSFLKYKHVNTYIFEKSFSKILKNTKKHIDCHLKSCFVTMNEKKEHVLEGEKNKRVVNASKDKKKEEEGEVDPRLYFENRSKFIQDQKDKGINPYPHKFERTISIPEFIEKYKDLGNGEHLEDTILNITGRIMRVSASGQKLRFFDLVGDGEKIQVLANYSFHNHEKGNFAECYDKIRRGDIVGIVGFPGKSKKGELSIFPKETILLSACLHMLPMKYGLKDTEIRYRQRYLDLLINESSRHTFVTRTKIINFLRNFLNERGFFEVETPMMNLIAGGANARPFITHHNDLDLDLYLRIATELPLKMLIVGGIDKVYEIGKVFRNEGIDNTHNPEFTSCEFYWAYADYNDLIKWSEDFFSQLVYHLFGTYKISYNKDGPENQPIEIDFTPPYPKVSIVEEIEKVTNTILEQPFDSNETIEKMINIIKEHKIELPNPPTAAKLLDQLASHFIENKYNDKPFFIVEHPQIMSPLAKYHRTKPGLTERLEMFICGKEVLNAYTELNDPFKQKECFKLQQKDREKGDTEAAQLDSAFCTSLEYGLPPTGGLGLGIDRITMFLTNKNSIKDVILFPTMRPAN

TcHisRS: 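Enzyme assay of histidyl-tRNA synthetase; the read-out is not stated. Target: Histidine-tRNA ligase, Trypanosoma cruzi CL Brener (UniProt Q4DA54). Compounds at 30 µM. Higher reads as stronger inhibition (inferred: compounds with an IC50 in retests scored well above the rest). About 69,000 compounds were tested under these conditions; 0.045% (about 31) showed 50% or more at least once.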
MtTrpRS: 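Tryptophan-tRNA ligase, Mycobacterium tuberculosis (UniProt P9WFT3). Enzyme assay of tryptophanyl-tRNA synthetase; the read-out is not stated. Concentration: 10 µM. Direction is not recorded; retested compounds ran higher, which suggests that high means inhibition. About 65,000 compounds were tested under these conditions; 0.098% (about 64) showed 50% or more at least once.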
Pks13 thioesterase: 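Enzyme assay of the thioesterase domain of polyketide synthase 13; the read-out is not stated. Target: Polyketide synthase Pks13, Mycobacterium tuberculosis (UniProt I6X8D2). Concentration: 30 µM. The record gives no direction; the compounds picked for IC50 retests had high values, so higher reads as stronger inhibition. Size under these conditions: about 67,000 compounds, about 300 of them at 50% or above in at least one test.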
PfKRS1: 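Lysine-tRNA ligase, Plasmodium falciparum 3D7 (UniProt Q8IDJ8). Enzyme assay of the cytosolic lysyl-tRNA synthetase in 384-well plates, read by luminescence. Concentration: 30 µM. Direction is inferred from only a few compounds that gave an IC50; most scored high, so higher reads as stronger inhibition. Of about 69,000 compounds tested this way, about 49 (0.071%) reached 50% or more in at least one test.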
Toxoplasma: 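Assay of Toxoplasma gondii numbers, read through their beta-galactosidase reporter with a colour substrate. Tested at 10 µM. Higher reads as fewer parasites (inferred from which compounds were picked for retests). Of about 67,000 compounds tested this way, about 260 (0.38%) reached 50% or more in at least one test.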

{"smiles": "O=C1C(Nc2ncccn2)CCN1c1ccccc1OC(F)F", "stereo": "centres undefined", "TcHisRS": 8.824, "MtTrpRS": 0.55, "Pks13 thioesterase": 7.43, "PfKRS1": 3.462, "Toxoplasma": 3.093}
{"smiles": "CC1CCCN(Cc2ccnc(-c3cccnc3)n2)C1.O=C(O)CC(O)(CC(=O)O)C(=O)O", "stereo": "centres undefined", "Toxoplasma": 5.393}
{"smiles": "COc1ncc(-c2ccc(C(N)=O)cc2)c(OC)n1", "TcHisRS": 11.44, "MtTrpRS": -5.951, "Pks13 thioesterase": -17.13, "PfKRS1": 4.611, "Toxoplasma": -24.87}
{"smiles": "CSCc1cc(F)ccc1CNCc1ncc[nH]1", "TcHisRS": 10.89, "MtTrpRS": -0.000006, "Pks13 thioesterase": -16.78, "PfKRS1": 2.891, "Toxoplasma": -10.29}
{"smiles": "O=C(NCc1cnc2n1CCN(Cc1cccs1)C2)c1ccno1", "TcHisRS": 8.247, "MtTrpRS": -3.843, "Pks13 thioesterase": -8.82, "PfKRS1": 4.15}
{"smiles": "CS(=O)(=O)N1CC[C@]2(C[C@@H](OCC3CCC3)CO2)C1", "TcHisRS": 1.695, "MtTrpRS": -3.353, "Pks13 thioesterase": -12.24, "PfKRS1": -5.924, "Toxoplasma": 6.645}
{"smiles": "CN(CCOc1cccc(F)c1)CC(=O)Nc1ccncc1", "TcHisRS": 3.093, "MtTrpRS": -0.8972, "Pks13 thioesterase": 1.364, "PfKRS1": 1.326, "Toxoplasma": -2.66}
{"smiles": "NC(=O)C1CCN(C(=O)c2ccc(Cn3cc(Br)cn3)cc2)CC1", "TcHisRS": 1.587, "MtTrpRS": 10.01, "Pks13 thioesterase": 12.82, "PfKRS1": -1.696, "Toxoplasma": 1.704}
{"smiles": "CCC(C)(CC(=O)OC)NC(=O)c1cccc(F)c1F", "stereo": "centres undefined", "TcHisRS": 3.012, "MtTrpRS": -0.9272, "Pks13 thioesterase": -2.411, "PfKRS1": -0.1394, "Toxoplasma": -5.889}
{"smiles": "Cc1ccc(C(=O)CN(C2=NCCCCC2)c2ccccc2)cc1", "TcHisRS": 4.878, "MtTrpRS": 3.476, "Pks13 thioesterase": 5.305, "PfKRS1": 2.178}
{"smiles": "O=C(NCCC(O)c1cccs1)c1ccco1", "stereo": "centres undefined", "TcHisRS": -1.111, "MtTrpRS": -2.573, "Pks13 thioesterase": -12, "PfKRS1": 4.398, "Toxoplasma": -4.366}
{"smiles": "O=C(NCCCN1CCN(c2ncccn2)CC1)Nc1ccccn1", "TcHisRS": 4.255, "MtTrpRS": 3.186, "Pks13 thioesterase": -33.24, "PfKRS1": 4.656, "Toxoplasma": -4.891}
{"smiles": "CCCc1ccc(CN2CCN(c3ncccn3)[C@@H]3CS(=O)(=O)C[C@@H]32)o1", "TcHisRS": 2.521, "MtTrpRS": 1.871, "Pks13 thioesterase": -10.87, "PfKRS1": 22.35}
{"smiles": "CC(C)(C)NC(=O)NC(=O)COc1nc(C(C)(C)C)no1", "TcHisRS": 3.941, "MtTrpRS": 5.556, "Pks13 thioesterase": -10.33, "PfKRS1": 5.614, "Toxoplasma": -2.023}
{"smiles": "CCc1nc(N)nc(N(C)Cc2nncn2CCOC)c1C", "TcHisRS": 4.372, "MtTrpRS": 5.216, "Pks13 thioesterase": 2.455, "PfKRS1": -4.601, "Toxoplasma": 7.268}
{"smiles": "O=C(O)C(F)(F)F.[H][C@@]12CCCO[C@]1([H])[C@@H](NC(=O)C1CC1)CN2Cc1ccsc1", "Toxoplasma": 3.873}
{"smiles": "c1cncc(COCc2nnc3n2CCN(Cc2ccsc2)C3)c1", "TcHisRS": 5.021, "MtTrpRS": 0.9114, "Pks13 thioesterase": -1.039, "PfKRS1": -6.347}
{"smiles": "Cc1ccc(OCCCNC(=O)NC(C)c2nncn2C)cc1", "stereo": "centres undefined", "TcHisRS": -2.642, "MtTrpRS": -1.798, "Pks13 thioesterase": -14.99, "PfKRS1": 4.444, "Toxoplasma": -2.185}
{"smiles": "CCc1nccn1C1CCCN(C(=O)Cc2cn3ccsc3n2)C1", "stereo": "centres undefined", "TcHisRS": 1.425, "MtTrpRS": 1.647, "Pks13 thioesterase": -5.561, "PfKRS1": -0.1876, "Toxoplasma": 14.26}
{"smiles": "CCOC(=O)CCCc1ccc2c(c1)CC(=O)N2", "TcHisRS": 8.021, "MtTrpRS": -3.565, "Pks13 thioesterase": -37.97, "PfKRS1": 3.629, "Toxoplasma": 0.437}
{"smiles": "Cc1ccc2nc(C(=O)N3C[C@@H](C(=O)O)[C@H](c4cccnc4)C3)cn2c1", "TcHisRS": 4, "MtTrpRS": 1.175, "Pks13 thioesterase": 2.001, "PfKRS1": 7.305, "Toxoplasma": 15.49}
{"smiles": "NC(=O)C1CN(C(=O)Nc2ccccc2SC2CCCC2)CCO1", "stereo": "centres undefined", "TcHisRS": 0.5814, "MtTrpRS": -7.592, "Pks13 thioesterase": 5.306, "PfKRS1": 4.215, "Toxoplasma": -6.814}
{"smiles": "CNC(=O)CN1CC[C@H]2CN(C(=O)c3cccc(C)c3)C[C@H]2C1", "TcHisRS": 7.477, "MtTrpRS": -3.539, "Pks13 thioesterase": -11, "PfKRS1": -2.639}
{"smiles": "CC(=O)N1CCN(CCNS(=O)(=O)c2cc(F)ccc2C)CC1", "TcHisRS": 9.548, "MtTrpRS": 1.321, "Pks13 thioesterase": -3.88, "PfKRS1": 6.175, "Toxoplasma": 25.82}
{"smiles": "CC1CCc2nc(O)c(C(=O)NCCN(C)C)cc2C1", "stereo": "centres undefined", "TcHisRS": -3.825, "MtTrpRS": -3.618, "Pks13 thioesterase": -47.64, "PfKRS1": 2.111, "Toxoplasma": 4.065}

Source: ChEMBL document CHEMBL3988442, “University of Dundee, Small-Polar-MMV Screening Library” (2021).